Test results as given in patent publication US6379563B1, “Alkylamines as biofilm deactivation agents” (Albemarle Corporation, priority 2000, dated 2002).
At least one read-out could not be matched to a standard name with certainty. Some of these results come from one statement about several compounds together. For at least one compound, name, drawing or mass did not settle the structure.

System: Pseudomonas aeruginosa (ATCC 15442) biofilms
Experiment: MBEC test, 24-hour biofilm, one hour biocide challenge;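 further: Peg-grown biofilms exposed to biocide, then regrowth in broth 18 h at 35 °C, turbidity by absorbance at 650 nm, above 0.100 counted as growth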
Assay type: cell-based
Details: 1 hour contact; for MBEC, avg.: average of duplicate runs; for MBEC, avg. / MBEC, ppm (first of duplicate runs) / MBEC, ppm (second of duplicate runs): blends: total amount of components (1:1 ratio); for MBEC: blends: total biocide

## CCCCCCCCCCCCN [1-Dodecylamine]
Listed as C12H25NH2
  MBEC, avg.: 38 ppm
  MBEC, ppm (first of duplicate runs): 25 ppm
  MBEC, ppm (second of duplicate runs): 50 ppm
  MBEC: 25 ppm

## CCCCCCN(C)CCCCCC [CH3(C6H13)2N]
  MBEC: > 800 ppm

## CCCCN(C)CCCC [CH3(C4H9)2N]
  MBEC: > 800 ppm

## CCCCCCCCCCCCCCCCCCN(C)C [ADMA 18 Amine]
  MBEC, avg.: >200 ppm
  MBEC, ppm (first of duplicate runs): >200, >200 ppm
  MBEC, ppm (second of duplicate runs): >200, >200 ppm
